Assay results: PubChem BioAssay AID328 (DTP/NCI, 2004)
The list is a part of this screen's results and no random one: it is rich in T/C values a quarter to a half above the control, in often repeated tests (any T/C) and in doses without a T/C. Other doses and runs of a compound stand elsewhere. T/C gives the treated animals as a percentage of the vehicle group. Some doses have a count of surviving animals in place of a T/C: the source holds a T/C of zero for them, seemingly a mark for toxic or unscored doses. Some survivor counts are full or nearly so, which does not show that the dose was tolerated: the source hardly ever lists a survival T/C far under the control, and the zero likely stands for such cases as well. Counts of survivors are from the toxicity check (mostly the fifth day) where no day follows; animals may have died later. Schedules are NCI's codes, taken here to give the interval after Q, in days (D) or hours (H), and the number of doses after X. Where survival is the endpoint, the PubChem record calls one and a half times the control and up active, and a quarter to a half above the control has no call in these data; cut-offs in other NCI protocols can differ.

Tested on: BDF1 mice, P388 leukemia ip, median survival T/C
Assay: NCI In Vivo Anticancer Drug Screen. Data for tumor model P388 Leukemia (intraperitoneal) in B6D2F1 (BDF1) mice
Settings: T/C endpoint: median survival time, higher T/C = longer survival
How it was run: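 Vehicle-dosed animals serve as the reference; survival of compound-dosed, tumour-implanted mice is divided by it.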

[1] = dose: 25.0 mg/kg/injection, schedule: Q01DX009 (ip), vehicle: saline with Tween-80
[2] = dose: 100.0 mg/kg/injection, schedule: Q04DX003 (ip), vehicle: Klucel (hydroxypropylcellulose) (HPC)
[3] = dose: 200.0 mg/kg/injection, schedule: Q04DX003 (ip), vehicle: Klucel (hydroxypropylcellulose) (HPC)
[4] = dose: 400.0 mg/kg/injection, schedule: Q04DX003 (ip), vehicle: Klucel (hydroxypropylcellulose) (HPC)
[5] = dose: 200.0 mg/kg/injection, schedule: Q01DX009 (ip), vehicle: saline with Tween-80
[6] = dose: 100.0 mg/kg/injection, schedule: Q04DX003 (ip), vehicle: saline
[7] = dose: 25.0 mg/kg/injection, schedule: Q01DX009 (ip), vehicle: saline
[8] = dose: 100.0 mg/kg/injection, schedule: Q01DX009 (ip), vehicle: other
[9] = dose: 400.0 mg/kg/injection, schedule: Q01DX009 (ip), vehicle: saline with Tween-80
[10] = dose: 25.0 mg/kg/injection, schedule: Q04DX003 (ip), vehicle: Klucel (hydroxypropylcellulose) (HPC)

With `CCC[CH2][Sn]1([CH2]CCC)[O]OC(c2ccc(C)cc2)[O]1` (centres undefined) the T/C (dose: 0.75 mg/kg/injection, schedule: Q01DX009 (ip), vehicle: saline with Tween-80) was 126 % of control, the survivor count (dose: 3.0 mg/kg/injection, schedule: Q01DX009 (ip), vehicle: saline with Tween-80) was 6 of 6 and the T/C (dose: 3.5 mg/kg/injection, schedule: Q01DX009 (ip), vehicle: saline with Tween-80) was 130 % of control. The survivor count (dose: 6.25 mg/kg/injection, schedule: Q01DX009 (ip), vehicle: saline with Tween-80) was 3 of 6, the survivor count (dose: 8.0 mg/kg/injection, schedule: Q01DX009 (ip), vehicle: saline with Tween-80) was 4 of 6 and the survivor count (dose: 12.0 mg/kg/injection, schedule: Q01DX009 (ip), vehicle: saline with Tween-80) was 1 of 6. For the same compound, the survivor count (dose: 12.5 mg/kg/injection, schedule: Q01DX009 (ip), vehicle: saline with Tween-80) was 0 of 6 and the survivor count [1] was 0 of 6.
With `CCC(/C=C/C(C)C1CCC2C3CC=C4CC(O)CCC4(C)C3CCC12C)C(C)C` (centres undefined) (tested in a mixture with another compound) the survivor count (dose: 150.0 mg/kg/injection, schedule: Q01DX009 (ip), vehicle: saline) was 1 of 6, the survivor count (dose: 150.0 mg/kg/injection, schedule: Q04DX003 (ip), vehicle: saline) was 5 of 6 and the survivor count (dose: 225.0 mg/kg/injection, schedule: Q01DX009 (ip), vehicle: saline) was 0 of 6. The survivor count (dose: 225.0 mg/kg/injection, schedule: Q04DX003 (ip), vehicle: saline) was 4 of 6, the survivor count (dose: 335.0 mg/kg/injection, schedule: Q01DX009 (ip), vehicle: saline) was 0 of 6 and the survivor count (dose: 335.0 mg/kg/injection, schedule: Q04DX003 (ip), vehicle: saline) was 2 of 6.
`O=C1NC(=O)C2(CCCCC2)N1` was tested, and the survivor count (dose: 100.0 mg/kg/injection, schedule: Q01DX009 (ip), vehicle: Klucel (hydroxypropylcellulose) (HPC)) was 1 of 6, the survivor count [2] was 4 of 6 and the survivor count [3] was 1 of 6. The survivor count [4] was 2 of 6.
With `Cc1cc(C)c(C)c(Br)c1` the survivor count [1] was 5 of 6.
In the case of `CC1NC(=O)OC1C(C)(C)C` (centres undefined), the survivor count (dose: 100.0 mg/kg/injection, schedule: Q01DX009 (ip), vehicle: saline with Tween-80) is reported as 0 of 6 and the survivor count [5] is reported as 0 of 6.
With `C1CNCOC1` the T/C [6] was 132 % of control and the T/C (dose: 200.0 mg/kg/injection, schedule: Q04DX003 (ip), vehicle: saline) was 146 % of control.
`O=C(O)COCC(F)(F)C(F)(F)C(F)(F)COCC(=O)O` was tested, and the T/C (dose: 400.0 mg/kg/injection, schedule: Q04DX003 (ip), vehicle: saline) was 138 % of control.
`CCOC(=O)c1ccc(C(=O)OCC)c(Cl)n1` was tested, and the survivor count [3] was 6 of 6 and the survivor count [4] was 6 of 6.
With `CC(O)CN(CCN(CC(C)O)CC(C)O)CC(C)O.[Cl-].[Co+2]` (centres undefined) the T/C [7] was 126 % of control and the T/C (dose: 50.0 mg/kg/injection, schedule: Q01DX009 (ip), vehicle: saline) was 137 % of control.
`Oc1ccc(/C=N/NC(=S)Nc2ccccc2)nc1` was tested, and the T/C [2] was 128 % of control and the T/C [3] was 130 % of control.
In the case of `COc1cc([C@@H]2c3cc4c(cc3[C@H](O)[C@H]3COC(=O)[C@@H]23)OCO4)cc(OC)c1OC`, the T/C (dose: 15.4 mg/kg/injection, schedule: Q01DX010 (ip), vehicle: carboxymethylcellulose (CMC)) is reported as 145 % of control, the survivor count (dose: 60.0 mg/kg/injection, schedule: Q01DX010 (ip), vehicle: carboxymethylcellulose (CMC)) is reported as 6 of 6 and the T/C (dose: 100.0 mg/kg/injection, schedule: Q04DX003 (ip), vehicle: saline sonified) is reported as 140 % of control. The survivor count (dose: 120.0 mg/kg/injection, schedule: Q01DX010 (ip), vehicle: carboxymethylcellulose (CMC)) was 5 of 6 and the survivor count (dose: 300.0 mg/kg/injection, schedule: Q04DX003 (ip), vehicle: saline sonified) was 5 of 6.
For `NCCCOc1ccc([N+](=O)[O-])cc1Cl`, the survivor count (dose: 200.0 mg/kg/injection, schedule: Q01DX009 (ip), vehicle: saline) was 2 of 6.
For `O=C(CCNOCc1ccccc1)OCc1ccccc1`, the T/C [8] was 126 % of control.
In the case of `COc1ccc2c(c1)c1c(C)c3cnccc3c(C)c1n2CCCN`, the survivor count [7] is reported as 6 of 6, the survivor count (dose: 50.0 mg/kg/injection, schedule: Q04DX003 (ip), vehicle: saline) is reported as 2 of 6 and the survivor count [6] is reported as 2 of 6.
For `COc1cc(C=Nc2cccc(F)c2)ccc1N(CCCl)CCCl`, the survivor count (dose: 25.0 mg/kg/injection, schedule: Q01DX009 (ip), vehicle: other) was 6 of 6, the survivor count (dose: 50.0 mg/kg/injection, schedule: Q01DX009 (ip), vehicle: other) was 0 of 6 and the survivor count [8] was 0 of 6.
For `C[C@]12CCC(=O)C=C1CC[C@@H]1[C@@H]2[C@@H](O)C[C@@]2(C)[C@H]1CC[C@]2(C)O`, the survivor count [5] was 4 of 6 and the survivor count [9] was 1 of 6.
With `c1ccc2c3csc4ccccc4c-3nc2c1` the survivor count [10] was 6 of 6 and the survivor count (dose: 50.0 mg/kg/injection, schedule: Q04DX003 (ip), vehicle: Klucel (hydroxypropylcellulose) (HPC)) was 4 of 6.
`O=c1nc(Oc2ccccc2)nc2c3ccccc3ccn12` was tested, and the T/C (dose: 50.0 mg/kg/injection, schedule: Q01DX009 (ip), vehicle: saline with Tween-80) was 128 % of control.
For `C(=N\OCCc1ccccc1)/c1cccnc1`, the T/C (dose: 400.0 mg/kg/injection, schedule: Q01DX009 (ip), vehicle: saline sonified) was 140 % of control.
With `C[C@]12CCC(=O)C=C1CC[C@@H]1[C@@H]2[C@@H](O)C[C@@]2(C)[C@H]1CC[C@]2(O)C(=O)CO` the T/C (dose: 50.0 mg/kg/injection, schedule: Q01DX010 (sc), vehicle: steroid suspending solution) was 130 % of control and the survivor count (dose: 400.0 mg/kg/injection, schedule: Q01DX010 (sc), vehicle: steroid suspending solution) was 6 of 6.
With `CS(=O)(=O)Nc1ccc(Nc2c3ccccc3nc3ccccc23)cc1` the T/C [10] was 136 % of control, the survivor count (dose: 75.0 mg/kg/injection, schedule: Q01DX009 (ip), vehicle: Klucel (hydroxypropylcellulose) (HPC)) was 6 of 6 and the T/C (dose: 75.0 mg/kg/injection, schedule: Q04DX003 (ip), vehicle: Klucel (hydroxypropylcellulose) (HPC)) was 140 % of control. The survivor count (dose: 600.0 mg/kg/injection, schedule: Q04DX003 (ip), vehicle: saline) was 6 of 6.
`COc1ccc(OC)c(/C=C/c2ccc3ccccc3n2)c1` was tested, and the survivor count (dose: 200.0 mg/kg/injection, schedule: Q04DX003 (ip), vehicle: saline with Tween-80) was 6 of 6.
`CCN1c2ccccc2CC(C#N)(CCN(C)C)c2ccccc21` (centres undefined) was tested, and the survivor count [5] was 3 of 6 and the survivor count [9] was 0 of 6.
For `COc1ccc2c(c1)N=C1CCCC3CCCCC123` (centres undefined), the survivor count (dose: 400.0 mg/kg/injection, schedule: Q04DX003 (ip), vehicle: saline with Tween-80) was 2 of 6.
For `C[C@]12CC[C@H]3[C@@H](CC[C@]4(O)C[C@@H](O)CC[C@]34C=O)[C@@]1(O)CC[C@@H]2c1ccc(=O)oc1`, the survivor count (dose: 55.0 mg/kg/injection, schedule: Q01DX010 (ip), vehicle: carboxymethylcellulose (CMC)) was 6 of 6.
`CC(/C=N/NC(N)=S)Cc1ccc(C(C)C)cc1` (centres undefined) was tested, and the survivor count (dose: 28.0 mg/kg/injection, schedule: Q01DX009 (ip), vehicle: saline with Tween-80) was 6 of 6, the survivor count (dose: 60.0 mg/kg/injection, schedule: Q01DX001 (ip), vehicle: saline with Tween-80) was 0 of 6 and the survivor count (dose: 90.0 mg/kg/injection, schedule: Q01DX001 (ip), vehicle: saline with Tween-80) was 0 of 6. For the same compound, the survivor count (dose: 135.0 mg/kg/injection, schedule: Q01DX001 (ip), vehicle: saline with Tween-80) was 0 of 6.
